{"source": "paper PMC5915175", "molecular_target": "T1, IRF4 WT (Homo sapiens) (UniProt Q15306)", "T1 sequence (looked up)": "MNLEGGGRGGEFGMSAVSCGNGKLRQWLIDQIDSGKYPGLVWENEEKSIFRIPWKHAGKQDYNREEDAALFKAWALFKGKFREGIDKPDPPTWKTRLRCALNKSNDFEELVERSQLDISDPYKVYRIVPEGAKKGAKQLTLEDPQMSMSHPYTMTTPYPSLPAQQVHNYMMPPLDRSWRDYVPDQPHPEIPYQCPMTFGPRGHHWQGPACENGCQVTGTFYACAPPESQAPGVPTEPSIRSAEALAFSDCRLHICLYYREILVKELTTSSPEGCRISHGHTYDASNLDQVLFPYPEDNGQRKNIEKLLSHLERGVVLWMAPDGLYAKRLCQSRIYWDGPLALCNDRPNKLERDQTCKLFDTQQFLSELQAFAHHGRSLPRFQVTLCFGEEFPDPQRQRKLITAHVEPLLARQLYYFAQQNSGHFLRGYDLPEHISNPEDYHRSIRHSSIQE", "test": "EMSA, supershift", "details": "anti-IRF4 supershift; 10 ug HEK293T nuclear lysate (nuclear lysis buffer 20 mM Hepes pH 7.9, 0.4 M NaCl, 1 mM EDTA, 1 mM EGTA, 25% glycerol) with 32P probe, 30 min on ice; protein in a lysate after overexpression; residues 1-451; label: 32P (dATP, Klenow fill-in)", "note": "Construct, isoform or probe ends are uncertain for at least one entry. Where cells or extracts were used, other partners may take part. At least one verdict rests on a figure or table, not on a statement of the authors. Protein sequences can lack the tags named with them.", "data": [{"sequence": "GATCGGGAAAGGGAAACCGAAACTGAA (double strand) [ISRE probe (ISG15 promoter-based)]", "values": [{"measurement": "binding result", "result": "binds"}]}]}
